Laboratory results published in US5614192A, “T cell receptor peptides as therapeutics for immune-related disease” (Connective Therapeutics, Inc., priority 1993, dated 1997).
Part of at least one peptide drawing is inferred or uncertain, most often the ends. Ends that are not written are not given here.

Key:
T cell immunity = T cell immunity / DH response induced by peptide; format: in vivo; conditions: Lewis rats
Text: Immunogenicity of peptides useful in the present invention can be screened by well-known methods, such as use of a DH response in an animal. In such a response, an animal is "sensitized" by injection of an appropriate dose of an antigen, typically subcutaneously (SC), frequently with an adjuvant, such as complete Freund's adjuvant (CFA). Generally about 5-15 days later, the response is "elicited" by challenging the animal, typically intradermally (ID), with an appropriate dose of the antigen, typically in saline or other buffer. The response is assessed 24-48 hours later. […]
The desired peptides, with sequences determined as described above, are prepared using standard synthesis techniques including solution and solid phase sequential amino acid conjugation and recombinant production in prokaryotic or eukaryotic hosts. Verification that the peptide prepared is immunogenic can easily be determined using a DH reaction in an animal (e.g., mouse or rat), as described above. […] The ear swelling response, measured 24 or 48 hours after challenge, serves as a simple and reliable measure of the presence of T cell-mediated immunity to the peptide.

DTH (ear swelling) = test: DTH to Vβ8.2-39-59 and Vβ8-44-54 in Vβ8-44-54/CFA immunized rats (Table 34); format: in vivo; conditions: rats immunized 14 days with Vβ8-44-54/CFA; net
Experimental: Transfer of DTH and protection: Delayed type hypersensitivity reactions were measured by the ear swelling assay (Offner et al., J. Neuroimmunol. 9: 147 (1984)) 24 and 48 h after injection i.d. of 20 μg antigen.
Values represent mean ± S.D. of net ear swelling in 6 immunized rats.

[1] = tested on: Vβ8-44-54 reactive T cell clones; test: Specificity of Vβ8-44-54 reactive T cell clones, proliferation (Table 37); format: cell-based, rat
Experimental: (§1) Proliferation assays: Proliferation assays were performed in 96-well microtiter plates. 2×10^4 T cells and 10^6 irradiated thymocytes/well were incubated with stimulation medium only, ConA, or antigen at 37C in 7% CO2. The cultures were incubated for 72 h, the last 18 h in the presence of 0.5 Bq ^3 H-Tdr. The cells were harvested onto glass fiber filters and TCR uptake was assessed by liquid scintillation. Mean CPM wre calculated from triplicate wells. The standard deviation from replicate wells varied <10% from the mean values. In some experiments, azide free antibodies to MHC I (OX-18) or MHC II (OX-6, anti-I-A and OX-17, anti-I-E) were added to the cultures to evaluate which MHC molecules were used to restrict the T cell response to TCR Vβ8-44-54 peptide.
Isolation of Vβ8-44-54 reactive T cell clones. To characterize the anti-TCR peptide response on the clonal level, ten clones were isolated and characterized from the initial T cell line. As is shown in Table 37, each of the clones responded strongly to the Vβ8-44-54 peptide with stimulation indices ranging from 10× to 1300×, and weakly or not at all to the Vβ8.2-39-59 or Vβ8.6-39-59 peptides. Three of the four clones challenged with all three of the peptides responded selectively to the consensus Vβ8-44-54 peptide, whereas only one clone (B7) reflected the T cell line pattern of response characterized by response to Vβ8-44-54 >Vβ8.6-39-59 >Vβ8.2-39-59 (Table 37). Loss of viability of the clones precluded individual testing of EAE-protective activity.

active EAE = test: Treatment of actively induced EAE with TCR Vβ8 peptides (FIG. 21); format: in vivo, rats; conditions: 100 μg s.c. on the first day of clinical EAE
passive EAE = test: Treatment of passively induced EAE with TCR Vβ8 peptides (FIGS. 21A, 22); format: in vivo, rats; conditions: EAE induced by Vβ8.2+ T cell lines specific for BP
DTH (ear thickness) = test: DTH to T cells and TCR peptides after clone transfer or peptide immunization (Table 32); format: in vivo, rats; conditions: 50 μg TCR peptide
Experimental: Transfer of DTH and protection: Delayed type hypersensitivity reactions were measured by the ear swelling assay (Offner et al., J. Neuroimmunol. 9: 147)) 24 and 48 h after injection i.d. of 20 μg antigen.
Rats received 5 million activated clone C45569 or clone C5GpBP

EAE [2] = test: Treatment of established EAE with Vβ8.6 39-59 peptide (FIG. 20); format: in vivo, rats; conditions: in saline s.c. or i.d. on the first day of clinical EAE; vs Vβ1439-59 or untreated
clone C455-69 = test: Proliferation response of clone C455-69 to BP peptides (Table 28); format: cell-based, rat; conditions: 50 μg/ml peptide (5 μg/ml ConA), 20,000 clone C455-69 cells, 3 days
Experimental: as §1, with “values.” for “values. In some experiments, azide free antibodies to MHC I (OX-18) or MHC II (OX-6, anti-I-A and OX-17, anti-I-E) were added to the cultures to evaluate which MHC molecules were used to restrict the T cell response to TCR Vβ8-44-54 peptide.”
the homologous RtBP sequence. Five μg/ml ConA or 50 μg/ml of each

EAE [3] = test: Pre-immunization with Gp-BP-55-69 before EAE induction; format: in vivo, Lewis rats
[4] = tested on: clones C372-89 and C455-69; test: Coculture of clones C372-89 and C455-69, proliferation (Table 31); format: cell-based, rat
Experimental: 50 μg of antigen was added to 10,000 cells of each clone stimulated in […]

[5] = 50 μg antigen, 10,000 cells, 3 days

## DMGHGLRLIHYSY [Vβ8.2-39-51]
T cell immunity
  antigenic (DTH) and protective activity: had no antigenic or protective activity

## LRLIHYSYDVN [Vβ8-44-54, LRLIHYSYDVN]
DTH (ear swelling)
  Ear Swelling 24 h: 26 ± 7 mm/100
  Ear Swelling 48 h: 30 ± 8 mm/100
[1]; Clone B3
  Proliferation Response: 57 CPM/1000
[1]; Clone B7
  Proliferation Response: 11 CPM/1000
[1]; Clone B9
  Proliferation Response: 2 CPM/1000
[1]; Clone B10
  Proliferation Response: 4 CPM/1000
[1]; Clone B11
  Proliferation Response: 9 CPM/1000
[1]; Clone C11
  Proliferation Response: 17 CPM/1000
[1]; Clone C12
  Proliferation Response: 108 CPM/1000
[1]; Clone C16
  Proliferation Response: 5 CPM/1000
[1]; Clone D1
  Proliferation Response: 130 CPM/1000
[1]; Clone D4
  Proliferation Response: 80 CPM/1000
[1]; Line
  Proliferation Response: 238 CPM/1000
Active EAE
  severity and duration of actively induced EAE: comparable activity to both the Vβ8.2-39-59 and Vβ8.6-39-59 peptides in reducing severity and duration
Passive EAE
  severity and duration of passively induced EAE: marked reduction in the severity and duration of EAE

## NMGDELRLIHYSYDVNRTEKG [Vβ8.6-39-59]
DTH (ear thickness); Immunization None
  DTH, change in ear thickness 48 h: 2 ± 1
DTH (ear thickness); rats given 5 million C5Gp-BP (Vβ8.2+)
  DTH, change in ear thickness 48 h: 5 ± 2
DTH (ear thickness); rats given C455-69
  DTH, change in ear thickness 48 h: 20 ± 3
DTH (ear thickness); rats immunized with Vβ8.239-59 peptide/CFA
  DTH, change in ear thickness 48 h: 31 ± 7
DTH (ear thickness); rats immunized with Vβ8.639-59 peptide/CFA
  DTH, change in ear thickness 48 h: 34 ± 5
EAE [2]
  severity and duration of EAE: reduced significantly the severity and duration of EAE
[1]; Clone B3
  Proliferation Response: 1.3 CPM/1000
[1]; Clone B7
  Proliferation Response: 6 CPM/1000
[1]; Clone B11
  Proliferation Response: 0.3 CPM/1000
[1]; Clone D1
  Proliferation Response: 0.8 CPM/1000
[1]; Line
  Proliferation Response: 162 CPM/1000

## SGKDSHHAARTTHYG [Gp-BP-55-69, SGKDSH HAARTTHYG]
Clone C455-69
  Response CPM/1000 ± S.D.: 247 ± 25 CPM/1000
EAE [3]; 100 μg Gp-BP-55-69/CFA 4 weeks before Gp-BP/CFA
  rats in which all signs of clinical EAE were prevented: 3 of 9
EAE [3]; pre-immunization before Gp-BP/CFA
  severity and duration of EAE in the remaining rats: reduced significantly the severity and duration of EAE in the rest
[4]; [5]
  Proliferation, C372-89: 0 ± 0 CPM/1000
  Proliferation, C455-69: 90 ± 10 CPM/1000
[4]; coculture C372-89 + C455-69
  level of inhibition compared to the sum of responses: 20%
[4]; coculture, 10,000 cells of each clone
  Proliferation, C372-89 + C455-69: 72 ± 7 CPM/1000

## YSYDVNSTEKG [Vβ8.2-49-59, YSYDVNSTEKG]
T cell immunity
  antigenic (DTH) and protective activity: induced only weak DTH reactions
